These are yes or no findings as the source states them, for the method shown. In cells and extracts the contact can be indirect. For some of these results: A result given as binding can be weak or reduced; the word gives no strength. For some of these results: Tags and fused reporters may be left off the sequences shown.
Experiments:
[1] = molecular target: T1, Flag-tagged Ac66 (AcMNPV) (UniProt P41467); test: co-IP; Sf9 cells co-transfected with bacmid DNA of vAc51ΔDnaJ, vAc51ΔRRM or vAc51ΔCC and pUC18-Ac66Flag; lysate on anti-Flag or IgG magnetic beads; western blot
T1 sequence: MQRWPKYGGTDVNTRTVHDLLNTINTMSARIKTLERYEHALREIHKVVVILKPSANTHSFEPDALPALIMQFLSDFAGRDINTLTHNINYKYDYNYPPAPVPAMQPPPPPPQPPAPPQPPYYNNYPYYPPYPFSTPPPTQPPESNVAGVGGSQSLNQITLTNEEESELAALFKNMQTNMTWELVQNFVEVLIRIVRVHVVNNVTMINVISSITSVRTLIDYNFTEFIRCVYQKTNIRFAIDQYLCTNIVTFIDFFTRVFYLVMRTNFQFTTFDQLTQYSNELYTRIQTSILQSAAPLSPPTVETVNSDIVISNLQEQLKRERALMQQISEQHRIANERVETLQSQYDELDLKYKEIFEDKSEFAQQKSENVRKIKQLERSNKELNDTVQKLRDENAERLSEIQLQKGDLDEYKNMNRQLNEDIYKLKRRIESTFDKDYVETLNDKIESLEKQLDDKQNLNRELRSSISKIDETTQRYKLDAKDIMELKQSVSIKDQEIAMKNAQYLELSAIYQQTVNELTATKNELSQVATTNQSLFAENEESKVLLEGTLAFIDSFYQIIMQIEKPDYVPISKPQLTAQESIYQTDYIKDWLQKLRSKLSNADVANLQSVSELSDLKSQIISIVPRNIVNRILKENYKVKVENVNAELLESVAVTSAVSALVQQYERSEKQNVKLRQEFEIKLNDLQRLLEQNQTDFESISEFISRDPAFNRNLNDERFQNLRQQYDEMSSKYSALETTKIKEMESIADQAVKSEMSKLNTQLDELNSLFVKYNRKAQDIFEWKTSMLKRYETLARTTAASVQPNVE

[2] = molecular target: T2, Ac51 (AcMNPV) (UniProt P41455); test: co-IP; Sf9 cells infected with vAcWT^Ac66Flag or vAcWT^EXON0Flag (MOI 5), 48 h p.i.; lysate on Flag-conjugated magnetic beads, or anti-Ac51 antibody with protein A/G agarose, 4°C overnight; IgG control; western blot
T2 sequence: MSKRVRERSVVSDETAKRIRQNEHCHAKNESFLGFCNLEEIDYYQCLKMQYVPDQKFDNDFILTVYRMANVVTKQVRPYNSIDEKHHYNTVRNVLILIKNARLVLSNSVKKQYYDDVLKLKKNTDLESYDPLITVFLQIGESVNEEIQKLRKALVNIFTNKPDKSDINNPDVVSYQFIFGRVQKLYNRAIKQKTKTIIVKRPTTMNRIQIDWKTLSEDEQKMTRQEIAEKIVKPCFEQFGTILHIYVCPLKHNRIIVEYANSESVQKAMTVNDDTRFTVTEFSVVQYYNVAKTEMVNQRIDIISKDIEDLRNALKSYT

Ac51ΔCC (AcMNPV) (domain or fragment) was tested. Which binding [1] did it give?
Its binding is “binds”.

Which binding [1] does the source give for Ac51ΔDnaJ (AcMNPV) (domain or fragment) here?
The binding was “binds weakly”.

How did the binding [1] turn out when Ac51ΔRRM (AcMNPV) (domain or fragment) was run?
The binding was “binds”.

How did the binding [2] turn out when Flag-tagged EXON0 (AcMNPV) was run?
The binding was “no binding”.

Source: article PMC12172431
